# According to patent publication US7786097B2, “Tricyclic compounds, compositions and methods” (Pfizer Inc., priority 2007, dated 2010):
# Assay: Dissociation index (side-effect biomarker / anti-inflammatory biomarker)
# Assay type: in vivo, mice
# Conditions: compound DI divided by prednisolone DI
structure (smiles),measurement,value
Cc1c(NC(=O)c2ccc3c(c2)CC[C@@H]2C[C@@](O)(C(F)(F)F)CC[C@@]32Cc2ccccc2)ccc[n+]1[O-] [Comparator G],Corrected Dissociation Index OC/TNFα (ED50),0.35
same,Corrected Dissociation Index OC/TNFα (ED80),0.67
